# Data as given in publication PMC12618502.
# These are yes or no findings as the source states them, for the method shown. In cells and extracts the contact can be indirect. Here binding means that the protein was enriched with, or labelled near, the bait; the list need not be complete. Tags and fused reporters may be left off the sequences shown.
# Biological target: T1, GFP-tagged SCP8 (SCP8-GFP), Verticillium dahliae small cysteine-containing effector VdSCP8 (Verticillium dahliae) (UniProt G2XD53)
# T1 sequence: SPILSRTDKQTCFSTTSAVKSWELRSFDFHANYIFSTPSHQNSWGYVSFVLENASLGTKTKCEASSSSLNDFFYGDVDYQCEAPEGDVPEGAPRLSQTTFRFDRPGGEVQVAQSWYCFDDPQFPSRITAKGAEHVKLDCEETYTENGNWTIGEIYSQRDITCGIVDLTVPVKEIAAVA
# Test: affinity purification with mass spectrometry; total proteins of N. benthamiana leaves transiently expressing SCP8-GFP (free GFP as control), immunoprecipitated with GFP-Trap agarose beads, trypsin digest, LC-MS/MS; proteins common to both samples removed
substance,measurement,value
subtilase (SBT) Niben101Scf00726g02006.1 of N. benthamiana (enzyme),binding,binds
